Drawing on the supplement of paper PMC12819154, “High-throughput peptide-centric local stability assay extends protein–ligand identification to membrane proteins, tissues and bacteria” (Nature Structural & Molecular Biology, 2025), this text covers log2 fold change for 28 targets.

Sequences of proteins named here, by UniProt entry; tags and fusion partners are left off. A change or cut given only in a name is not applied to a line headed by its entry.
UniProt Q8WUK0: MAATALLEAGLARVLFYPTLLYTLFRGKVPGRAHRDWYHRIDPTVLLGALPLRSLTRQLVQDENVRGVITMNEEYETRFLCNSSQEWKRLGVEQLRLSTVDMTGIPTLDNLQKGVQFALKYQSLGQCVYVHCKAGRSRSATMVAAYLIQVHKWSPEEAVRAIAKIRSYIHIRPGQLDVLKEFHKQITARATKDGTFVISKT
UniProt Q8WYP5: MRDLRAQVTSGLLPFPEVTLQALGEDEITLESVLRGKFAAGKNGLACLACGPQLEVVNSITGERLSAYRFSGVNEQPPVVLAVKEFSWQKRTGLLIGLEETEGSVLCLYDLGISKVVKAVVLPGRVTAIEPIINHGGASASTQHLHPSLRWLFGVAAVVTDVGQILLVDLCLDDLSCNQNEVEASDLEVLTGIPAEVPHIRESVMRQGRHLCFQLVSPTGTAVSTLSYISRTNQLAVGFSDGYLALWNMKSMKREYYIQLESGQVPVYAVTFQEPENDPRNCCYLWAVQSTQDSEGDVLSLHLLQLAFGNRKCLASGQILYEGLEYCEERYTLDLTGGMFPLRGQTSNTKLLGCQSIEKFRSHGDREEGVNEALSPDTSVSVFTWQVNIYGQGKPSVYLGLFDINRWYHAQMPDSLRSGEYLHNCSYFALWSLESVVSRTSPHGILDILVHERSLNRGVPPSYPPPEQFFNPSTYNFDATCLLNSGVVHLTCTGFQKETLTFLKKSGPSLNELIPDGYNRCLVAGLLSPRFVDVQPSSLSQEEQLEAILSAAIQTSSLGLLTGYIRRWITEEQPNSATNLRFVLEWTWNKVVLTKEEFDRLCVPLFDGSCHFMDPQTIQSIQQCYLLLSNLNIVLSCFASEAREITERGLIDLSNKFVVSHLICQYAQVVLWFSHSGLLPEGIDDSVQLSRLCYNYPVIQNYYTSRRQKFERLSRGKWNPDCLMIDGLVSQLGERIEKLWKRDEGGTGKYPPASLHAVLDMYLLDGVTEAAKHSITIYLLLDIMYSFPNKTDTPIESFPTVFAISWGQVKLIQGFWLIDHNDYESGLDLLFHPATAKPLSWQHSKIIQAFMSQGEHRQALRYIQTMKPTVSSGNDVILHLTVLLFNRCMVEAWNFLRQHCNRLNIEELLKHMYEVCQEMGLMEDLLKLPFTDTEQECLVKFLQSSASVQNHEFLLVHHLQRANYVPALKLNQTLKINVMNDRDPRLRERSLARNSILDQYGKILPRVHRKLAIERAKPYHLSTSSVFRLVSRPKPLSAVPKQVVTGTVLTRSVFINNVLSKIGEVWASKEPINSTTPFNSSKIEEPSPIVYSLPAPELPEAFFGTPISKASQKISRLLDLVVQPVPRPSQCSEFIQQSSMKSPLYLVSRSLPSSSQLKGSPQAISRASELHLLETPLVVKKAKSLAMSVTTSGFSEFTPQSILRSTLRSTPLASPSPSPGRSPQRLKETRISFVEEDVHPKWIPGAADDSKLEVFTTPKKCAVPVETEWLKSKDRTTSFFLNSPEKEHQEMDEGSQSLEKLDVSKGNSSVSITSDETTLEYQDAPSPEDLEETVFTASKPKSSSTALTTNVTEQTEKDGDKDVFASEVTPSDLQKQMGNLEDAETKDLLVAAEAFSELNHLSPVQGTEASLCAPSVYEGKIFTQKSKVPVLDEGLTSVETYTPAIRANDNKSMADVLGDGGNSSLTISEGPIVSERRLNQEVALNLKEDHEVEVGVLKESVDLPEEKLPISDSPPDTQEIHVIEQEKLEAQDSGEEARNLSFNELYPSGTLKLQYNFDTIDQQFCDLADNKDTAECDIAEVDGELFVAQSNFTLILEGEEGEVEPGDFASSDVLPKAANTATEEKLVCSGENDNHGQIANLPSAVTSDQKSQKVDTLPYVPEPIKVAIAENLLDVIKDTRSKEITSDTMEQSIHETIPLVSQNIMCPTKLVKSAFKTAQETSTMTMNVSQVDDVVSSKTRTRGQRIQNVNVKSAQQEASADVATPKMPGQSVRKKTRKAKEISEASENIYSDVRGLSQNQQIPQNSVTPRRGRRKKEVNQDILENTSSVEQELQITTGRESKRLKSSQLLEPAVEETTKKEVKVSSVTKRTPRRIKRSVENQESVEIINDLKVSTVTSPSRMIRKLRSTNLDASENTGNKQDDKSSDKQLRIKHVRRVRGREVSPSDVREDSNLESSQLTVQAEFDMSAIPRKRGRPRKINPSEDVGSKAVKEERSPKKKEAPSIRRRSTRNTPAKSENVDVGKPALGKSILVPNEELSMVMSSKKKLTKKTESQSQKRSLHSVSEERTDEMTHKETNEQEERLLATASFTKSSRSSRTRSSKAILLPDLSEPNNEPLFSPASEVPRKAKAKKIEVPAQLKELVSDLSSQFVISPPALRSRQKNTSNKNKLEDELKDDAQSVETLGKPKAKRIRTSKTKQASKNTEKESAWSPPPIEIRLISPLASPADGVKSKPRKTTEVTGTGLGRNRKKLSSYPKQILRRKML
UniProt Q8WWK9: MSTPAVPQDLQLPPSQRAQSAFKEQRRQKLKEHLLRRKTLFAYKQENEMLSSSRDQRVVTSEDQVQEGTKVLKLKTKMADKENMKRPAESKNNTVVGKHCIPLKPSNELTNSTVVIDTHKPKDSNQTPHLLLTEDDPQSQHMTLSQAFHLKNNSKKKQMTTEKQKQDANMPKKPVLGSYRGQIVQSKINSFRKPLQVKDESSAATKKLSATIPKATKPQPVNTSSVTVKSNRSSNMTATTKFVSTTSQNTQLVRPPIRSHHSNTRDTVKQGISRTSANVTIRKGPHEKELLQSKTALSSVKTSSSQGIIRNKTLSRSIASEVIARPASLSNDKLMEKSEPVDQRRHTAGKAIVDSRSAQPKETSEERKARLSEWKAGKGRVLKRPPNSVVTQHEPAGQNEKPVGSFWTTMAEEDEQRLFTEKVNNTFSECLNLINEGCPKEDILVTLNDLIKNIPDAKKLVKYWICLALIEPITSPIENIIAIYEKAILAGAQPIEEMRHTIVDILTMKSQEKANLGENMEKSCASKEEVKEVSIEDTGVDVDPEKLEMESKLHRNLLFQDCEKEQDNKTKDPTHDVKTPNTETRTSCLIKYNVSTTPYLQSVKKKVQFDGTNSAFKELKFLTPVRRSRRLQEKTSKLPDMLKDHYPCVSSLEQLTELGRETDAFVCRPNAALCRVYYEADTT
UniProt Q8WWC4: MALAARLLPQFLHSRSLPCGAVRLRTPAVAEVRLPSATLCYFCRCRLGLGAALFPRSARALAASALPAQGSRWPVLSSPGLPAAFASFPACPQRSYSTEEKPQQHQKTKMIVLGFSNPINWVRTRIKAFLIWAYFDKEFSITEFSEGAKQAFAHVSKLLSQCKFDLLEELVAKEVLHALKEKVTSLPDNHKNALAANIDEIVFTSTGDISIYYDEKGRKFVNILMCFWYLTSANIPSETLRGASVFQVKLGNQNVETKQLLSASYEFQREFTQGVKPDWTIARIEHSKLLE
UniProt Q92556, whole entry: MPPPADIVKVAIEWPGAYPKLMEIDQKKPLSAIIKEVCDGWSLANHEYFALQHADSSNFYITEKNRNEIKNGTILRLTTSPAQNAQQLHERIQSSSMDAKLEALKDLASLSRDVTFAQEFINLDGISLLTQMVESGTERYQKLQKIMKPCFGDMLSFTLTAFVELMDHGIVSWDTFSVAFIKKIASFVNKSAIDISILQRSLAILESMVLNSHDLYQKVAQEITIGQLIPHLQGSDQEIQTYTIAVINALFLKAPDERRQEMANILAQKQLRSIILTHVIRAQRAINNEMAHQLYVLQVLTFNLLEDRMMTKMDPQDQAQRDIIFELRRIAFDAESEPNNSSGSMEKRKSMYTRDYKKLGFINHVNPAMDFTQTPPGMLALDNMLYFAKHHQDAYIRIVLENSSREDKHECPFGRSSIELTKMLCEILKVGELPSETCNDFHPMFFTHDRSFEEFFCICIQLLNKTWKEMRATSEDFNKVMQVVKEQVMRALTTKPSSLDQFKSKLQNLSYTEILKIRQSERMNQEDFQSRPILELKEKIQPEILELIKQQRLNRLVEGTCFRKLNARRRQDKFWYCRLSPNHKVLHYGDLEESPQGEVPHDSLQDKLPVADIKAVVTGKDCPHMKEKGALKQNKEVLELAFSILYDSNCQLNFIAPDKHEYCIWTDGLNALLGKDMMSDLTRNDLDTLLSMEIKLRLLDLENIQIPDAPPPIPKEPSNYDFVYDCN
UniProt Q92600, whole entry: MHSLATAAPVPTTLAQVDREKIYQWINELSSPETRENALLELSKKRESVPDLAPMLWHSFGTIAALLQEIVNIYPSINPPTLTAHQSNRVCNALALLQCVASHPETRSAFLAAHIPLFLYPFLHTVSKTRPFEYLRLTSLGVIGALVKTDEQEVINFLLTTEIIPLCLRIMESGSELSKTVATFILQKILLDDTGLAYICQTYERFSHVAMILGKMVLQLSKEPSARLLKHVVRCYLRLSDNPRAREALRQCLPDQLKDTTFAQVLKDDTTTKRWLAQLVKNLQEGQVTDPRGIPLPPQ
UniProt Q8TEB9: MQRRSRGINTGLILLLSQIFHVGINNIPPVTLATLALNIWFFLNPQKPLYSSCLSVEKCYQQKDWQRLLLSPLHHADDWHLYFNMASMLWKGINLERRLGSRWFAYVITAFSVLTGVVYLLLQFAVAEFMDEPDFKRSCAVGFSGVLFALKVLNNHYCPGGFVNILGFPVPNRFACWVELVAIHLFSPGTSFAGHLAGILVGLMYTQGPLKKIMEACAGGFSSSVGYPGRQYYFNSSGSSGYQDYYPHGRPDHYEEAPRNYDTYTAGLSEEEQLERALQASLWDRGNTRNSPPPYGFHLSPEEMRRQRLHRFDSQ
UniProt Q8TDN6: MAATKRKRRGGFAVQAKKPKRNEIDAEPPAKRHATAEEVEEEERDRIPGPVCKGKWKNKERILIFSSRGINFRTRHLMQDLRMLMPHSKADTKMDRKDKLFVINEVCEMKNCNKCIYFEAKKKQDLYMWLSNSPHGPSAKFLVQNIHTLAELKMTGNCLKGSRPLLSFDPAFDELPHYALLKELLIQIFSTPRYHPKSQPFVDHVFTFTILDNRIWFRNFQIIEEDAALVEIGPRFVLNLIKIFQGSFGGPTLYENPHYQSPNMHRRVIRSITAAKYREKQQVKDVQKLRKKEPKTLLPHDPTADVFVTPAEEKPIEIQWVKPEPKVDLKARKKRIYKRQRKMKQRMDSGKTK
UniProt Q8TCT9: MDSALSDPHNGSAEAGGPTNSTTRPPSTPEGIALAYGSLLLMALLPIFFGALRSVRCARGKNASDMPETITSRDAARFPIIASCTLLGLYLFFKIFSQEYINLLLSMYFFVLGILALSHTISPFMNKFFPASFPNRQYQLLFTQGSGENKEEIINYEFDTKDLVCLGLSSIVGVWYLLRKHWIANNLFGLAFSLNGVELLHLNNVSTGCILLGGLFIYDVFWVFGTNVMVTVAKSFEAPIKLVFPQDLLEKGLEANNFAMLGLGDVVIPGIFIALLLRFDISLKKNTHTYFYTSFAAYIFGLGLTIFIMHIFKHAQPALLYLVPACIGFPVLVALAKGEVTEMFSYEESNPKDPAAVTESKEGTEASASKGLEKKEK
UniProt Q8WX92, whole entry: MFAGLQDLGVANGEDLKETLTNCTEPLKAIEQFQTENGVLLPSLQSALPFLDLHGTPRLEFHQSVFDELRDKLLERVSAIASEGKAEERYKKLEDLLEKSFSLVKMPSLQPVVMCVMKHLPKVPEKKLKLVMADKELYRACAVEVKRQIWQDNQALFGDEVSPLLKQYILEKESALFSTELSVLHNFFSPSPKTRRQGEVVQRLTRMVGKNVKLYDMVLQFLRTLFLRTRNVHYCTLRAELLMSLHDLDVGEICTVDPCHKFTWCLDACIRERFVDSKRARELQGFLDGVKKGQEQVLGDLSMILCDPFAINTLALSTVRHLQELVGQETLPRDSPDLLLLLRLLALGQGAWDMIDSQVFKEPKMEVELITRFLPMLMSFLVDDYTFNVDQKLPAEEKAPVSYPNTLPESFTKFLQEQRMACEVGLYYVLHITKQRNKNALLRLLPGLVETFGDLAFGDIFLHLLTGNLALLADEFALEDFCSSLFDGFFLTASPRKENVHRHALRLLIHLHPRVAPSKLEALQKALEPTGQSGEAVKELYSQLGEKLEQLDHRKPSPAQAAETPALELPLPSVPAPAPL
UniProt Q8TCX1: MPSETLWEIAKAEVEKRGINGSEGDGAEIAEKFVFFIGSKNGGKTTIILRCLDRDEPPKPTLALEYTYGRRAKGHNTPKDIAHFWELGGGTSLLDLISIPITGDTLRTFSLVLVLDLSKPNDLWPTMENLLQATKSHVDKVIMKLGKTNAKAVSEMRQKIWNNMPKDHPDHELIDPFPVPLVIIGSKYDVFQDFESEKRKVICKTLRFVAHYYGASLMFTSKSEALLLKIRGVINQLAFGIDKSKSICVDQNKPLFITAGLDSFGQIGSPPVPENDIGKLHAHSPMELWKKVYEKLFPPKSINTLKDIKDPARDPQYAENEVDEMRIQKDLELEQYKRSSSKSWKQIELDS

Some of the results follow. Most entries show no effect beyond the scatter of the controls.

Compound in the assay: Cc1nc(Nc2ncc(C(=O)Nc3c(C)cccc3Cl)s2)cc(N2CCN(CCO)CC2)n1 [dasatinib]
The experiment in a line: log2 fold change of tryptic peptide abundance, ligand vs vehicle (limited proteolysis) (log2 ratio); higher = more trypsin-susceptible (destabilized). The settings on record: ligand concentration: 5 uM; sample: K562 cleared lysate.
On to “PTPMT1 (peptide sequence: YQSLGQCVYVHCK, peptide start residue: 121) (UniProt Q8WUK0)”, for which the log2 fold change was found to be 0.735.
In the case of “AHCTF1 (peptide sequence: KTTEVTGTGLGR, peptide start residue: 2237) (UniProt Q8WYP5)”, the log2 fold change came to 0.611.
Turning to “NOC3L (peptide sequence: MHIAALASAILSDPENNIKK, peptide start residue: 216) (UniProt Q8WTT2)”, the log2 fold change came to 0.734.
As to “RNF138 (peptide sequence: TTACQHVFCR, peptide start residue: 31) (UniProt Q8WVD3)”, the log2 fold change came out at 0.354.
The value for “PANK1 (peptide sequence: GPVGGSDAAPQR, peptide start residue: 186) (UniProt Q8TE04)” was 0.0605; that for “CKAP2 (peptide sequence: PASLSNDKLMEK, peptide start residue: 326) (UniProt Q8WWK9)” was 0.431; that for “UniProt Q8WWC4 (peptide sequence: EFTQGVKPDWTIAR, peptide start residue: 270)” was -0.101.
With “ELMO1 (peptide sequence: DIIFELR, peptide start residue: 322) (UniProt Q92556)”, the log2 fold change stood at 0.409.
On to “ANKRD49 (peptide sequence: DEDEYTPLHR, peptide start residue: 105) (UniProt Q8WVL7)”, for which the log2 fold change is 0.208.
The value for “LZIC (peptide sequence: QNLEEQLDR, peptide start residue: 14) (UniProt Q8WZA0)” was 0.113.
In the case of “TRIM41 (peptide sequence: HYWEVEVGGRR, peptide start residue: 486) (UniProt Q8WV44)”, the log2 fold change turned out to be 0.439.
Turning to “UniProt Q92600 (peptide sequence: ENALLELSK, peptide start residue: 36)”, the log2 fold change is -0.132.
In the case of “RHBDD1 (peptide sequence: ALQASLWDR, peptide start residue: 277) (UniProt Q8TEB9)”, the log2 fold change was -0.458.
“UniProt Q8TF01 (peptide sequence: EQNSLSLLEAR, peptide start residue: 462)”: the log2 fold change is -0.173.
Regarding “CCDC12 (peptide sequence: NYVPEDEDLKK, peptide start residue: 61) (UniProt Q8WUD4)”, the log2 fold change was found to be 0.243.
For “UniProt Q8TDN6 (peptide sequence: LFVINEVCEMKNCNK, peptide start residue: 100)”, the log2 fold change is 0.409.
For “HM13 (peptide sequence: NASDMPETITSR, peptide start residue: 62) (UniProt Q8TCT9)”, the log2 fold change amounted to 0.0804.
The value for “NANP (peptide sequence: LSKECFHPYNTCITDLR, peptide start residue: 56) (UniProt Q8TBE9)” was -0.36; that for “ATRIP (peptide sequence: PGPPPGTGHPPSKR, peptide start residue: 20) (UniProt Q8WXE1)” was -0.543; that for “UniProt Q8WX92 (peptide sequence: KLEDLLEK, peptide start residue: 92)” was -0.495.
For the target “DEPDC1B (peptide sequence: HSIAIGEVPACR, peptide start residue: 159) (UniProt Q8WUY9)”, the log2 fold change is -0.48.
As for “ZNF417 (peptide sequence: TAYPCEECGK, peptide start residue: 294) (UniProt Q8TAU3)”, the log2 fold change is 0.351.
The value for “DYNC2LI1 (peptide sequence: GVINQLAFGIDKSK, peptide start residue: 232) (UniProt Q8TCX1)” was 0.356; that for “UniProt Q8WTW4 (peptide sequence: TGMSYHELDER, peptide start residue: 358)” was 0.417.
In the case of “UniProt Q8TDG4 (peptide sequence: KHATDFATENLCSESIKNK, peptide start residue: 138)”, the log2 fold change was determined as 0.56.
As to “NSMCE1 (peptide sequence: LQTHCYK, peptide start residue: 36) (UniProt Q8WV22)”, the log2 fold change was -0.211.
With “RNF141 (peptide sequence: VAELNDVTAK, peptide start residue: 42) (UniProt Q8WVD5)”, the log2 fold change was -0.105.
Regarding “PRPF31 (peptide sequence: FDKWQEPPPVK, peptide start residue: 328) (UniProt Q8WWY3)”, the log2 fold change is -0.127.
